Results reported in patent US20260285816A1, “Piperazinyl-Modified Quinazolinyl-Aryl Urea Derivative, And Preparation Method And Use Thereof” (Guangxi Normal University, priority 2025, published 2026).
At least one structure is not confirmed: it was looked up by name or label, or the drawing left a doubt.

System: MCF-7 cells
Test: CCK-8 anti-proliferative assay, MCF-7
Assay type: cell-based, human
Experimental: The obtained quinazolinyl-aryl urea derivatives were screened for compounds with optimal activity using the following method.
Experimental Procedure for Anti-Proliferative Activity Evaluation: The CCK-8 assay was employed. Cells in logarithmic growth phase were harvested, adjusted to appropriate density, and uniformly seeded into 96-well plates using a multichannel pipette (180 μL cell suspension containing complete medium per well, 5,000 cells/well). Blank control wells (containing basal medium, CCK-8 solution, and DMSO only) were set. Cells were incubated at 37° C. under 5% CO2. After 70% confluency was reached, test compounds (target compounds/positive controls) were added at final concentrations of 1, 2, 4, 6, 8, 12, 16, 24, and 30 μM (3 repeated wells per concentration). Compounds were pre-dissolved in DMSO, sterilized, and diluted with medium before adding 20 μL/well. After co-incubation for designated durations, 10 μL CCK-8 solution was added per well followed by 1-4 h incubation (different cells have different incubation times). […] Inhibition rates were calculated as: (ODcontrol−ODtreatment)/ODcontrol×100%. Median inhibitory concentrations (IC50 values) were derived using Origin v8.0 software.

COc1cc2ncnc(NCc3cccc(NC(=O)Nc4ccc(Cl)c(C(F)(F)F)c4)c3)c2cc1OCCCCCCN1CCN(CCN2CCOCC2)CC1 [Compound 8-1r]
Sensitivity of MCF-7, in words: sensitive
